Assay results: US6551815B1, “In situ denitrification” (University of New Mexico, priority 1997, dated 2003)
For at least one compound, name, drawing or mass did not settle the structure. Some entries share one result that the patent states for a list of compounds.

System: indigenous denitrifying bacteria naturally present in the groundwater
Assay: Serum bottle denitrification of Tuba City groundwater amended with carbon and phosphorus sources
Format: cell-based
Procedure: In situ biological denitrification was studied as a groundwater remediation process with nitrogen as the final product at an UMTRA site in Tuba City, Ariz. Nitrate contaminated groundwater and soil from the contaminated field site were used, and in all experiments the initial nitrate concentration was about 1300 mg/L and the pH was 7.5-8. Denitrification was studied in a 2.5 L fermentor and in 120 mL serum bottles using a water to soil ratio of 100 mL/8 g and indigenous denitrifying bacteria naturally present in the groundwater. Oxygen was removed initially by purging with argon for 15 minutes. […] Nitrate, nitrite, carbon source, and pH changes were monitored during denitrification. Eh was indicated using a resazurin dye. […] For each carbon source, the stoichiometric equation is present, and a theoretical yield coefficient was determined from each stoichiometric equation.
The water samples were kept in 1000 mL plastic bottles and reserved in a refrigerator.
Chemicals used for phosphorus amendment included orthophosphate KH2PO4, trimetaphosphate Na3P3O9 (Sigma Co.) and polyphosphate (NaPO3)n (Aldrich Co.). All chemicals were A.C.S. reagent grade. Crushed sands were prepared by pulverizing the core samples (about 47 to 100 feet depth) from the Tuba City site using a pestle and mortar. This Navajo sandstone is a fine to fine grained unit with median grain size diameter (d50) about 0.11 mm. The sandstone was kept without contamination by organic chemicals.
Stock solution mixtures with neutral pH and total volume less than 15 mL for denitrification amendment, including carbon source and phosphorus sources, 0.05 mL of a 0.2% resazurin solution (redox potential indicator), and 8 g crushed sand for part experiments, were added into a 160 mL serum bottle, which was then autoclaved at 121° C. (250° F.) for 20 min. […] Denitrification process via the activity of the indigenous denitrifiers present in the groundwater was monitored. […]

SMILES	minimum molar ratio of carbon source to nitrate required for complete denitrification (core sand, KH2PO4, 23±1° C.)	Molar ratio of carbon source to nitrate, minimum for nearly complete denitrification (groundwater with core sand, KH2PO4 100 mg/L, 23±1° C.)	nitrate reduced after two months
CC(O)C(=O)[O-].[Na+] (stereo not drawn) [Lactate, sodium lactate]	about 8:12	8:12	–
CO [Methanol, methanol]	–	–	0-2%
